Experimental data from patent US10414891B2, “Polyurethane curatives” (The Shepherd Chemical Company, priority 2015, dated 2019).

Key:
[1] = Foam kinetics and density of two-component PU system; details: 0.02% w/w catalyst, TDI 80-20 / polyester polyol, water 3.5 w/w
[2] = VOC (fogging) measurement of PU formulation under standardized automotive conditions; details: same formulation and same use level as stannous octanoate

| Compound | Cream time [1] [min] | Foam Density [1] [kg/m^3] | Tack free time [1] [min] | VOC's compared between the BiCAT systems [2] |
| --- | --- | --- | --- | --- |
| CCCCC(CC)C(=O)[O-].CCCCC(CC)C(=O)[O-].[Sn+2] (centres unmarked) [Stannous Octoate, stannous octoate, reference compound] | 15 | 35.1 | 88 | – |
| bismuth, 1,1′,1″,1′″-(1,2-ethanediyldinitrilo)tetrakis[2-propanol] neodecanoate complexes [Curative 8840] | – | – | – | the same |
| bismuth, 2,2′,2″,2′″-(1,2-ethanediyldinitrilo)tetrakis[ethanol] neodecanoate complexes [Curative 8842] | 14 | 35.4 | 89 | the same |
